Data as given in US5208223A, “Phosphocholine derivative inhibitors of phospholipase A2” (American Cyanamid Company, priority 1992, dated 1993).
Several values for one entry are separate records, joined by “and”; a condition that tells them apart may be missing. Equal entries are not always repeated. Structures can show the parent of a compound that is named as a salt. At least one read-out could not be matched to a standard name with certainty.

Chains of the proteins cited; added tags and fusions are not shown. Residues count along the entry.
UniProt P00592, 23-146: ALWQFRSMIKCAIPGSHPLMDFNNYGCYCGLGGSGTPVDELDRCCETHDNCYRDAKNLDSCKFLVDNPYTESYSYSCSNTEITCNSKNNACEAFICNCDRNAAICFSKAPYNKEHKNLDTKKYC

Experiments:
Format in all cases: biochemical
porcine pancreatic PLA2 [1] = molecular target: T1, porcine pancreatic PLA2 (Sus scrofa, UniProt P00592); assay: MHPLA2 assay: in vitro porcine pancreatic phospholipase A2, mixed micelle design, [s]=10 μm; conditions: dose 25 μ/ml, subs. con. 10
T1 construct: purchased Sigma
Procedure: (§1) Phospholipase A2 activity was measured by a radiochemical assay in which labeled synthetic phosphatidylcholine substrate is converted by porcine pancreatic PLA2 to free radiolabeled arachidonate and lyso PC. Radiolabeled arachidonate is extracted from the reaction mixture and separated from unreacted substrate by column chromatography or TLC. Radioactivity (cpm) in samples is quantitated by liquid scintillation counting. Specific details are as follows:
(§2) Labeled substrate(1-stearyl-2-^3 H-arachidonylphosphatidylcholine; Amersham, sp. act. 84 (uCi/mmole, 0.025 to 0.2 uCi/assay tube and unlabeled substrates (Avanti), in sufficient quantity to give 20,000 cpm to 50,000 cpm and 10 μM to 1,000 μM final concentration/assay tube are dried under a stream of nitrogen. The PLA2 and mPLA2 assays utilized a […] substrate concentration. The mHPLA2 and HPLA2 assays (vida infra) utilized a 10 μM substrate concentration and the SmPLA2 assay utilized a substrate concentration ranging from 100 to 1000 μm. The substrate is then redissolved in 0.1M tris-HCl buffer, pH 9.0 containing 10 mM CaCl2 and 10 mM Na taurocholate detergent. The mixture is sonicated in a Kontes Sonifier to yield a homogeneous dispersion. […]
(§3) Labeled arachidonate extracted with CHCl3 /MeOH is separated on silica gel G TLC plates (Analtech). […] A 20 μL sample is counted in 10 ml of Beckman Redi-solv HP and spotted on silica gel G plates. […]

porcine pancreatic PLA2 [2] = molecular target: T1, porcine pancreatic PLA2; assay: MPLA2 assay: in vitro porcine pancreatic phospholipase A2, mixed micelle design, substrate 2 nM; conditions: subs. con. 2
Procedure: as §1, §2, §3

porcine pancreatic PLA2 [3] = molecular target: T1, porcine pancreatic PLA2; assay: PLA2 assay: in vitro porcine pancreatic phospholipase A2, preincubation of drug+enzyme, substrate 2 nM; conditions: subs. con. 2
Procedure: as §1
Labeled substrate(1-stearyl-2-^3 H-arachidonylphosphatidylcholine; Amersham, sp. act. 84 (uCi/mmole, 0.025 to 0.2 uCi/assay tube and unlabeled substrates (Avanti), in sufficient quantity to give 20,000 cpm to 50,000 cpm and 10 μM to 1,000 μM final concentration/assay tube are dried under a stream of nitrogen. The PLA2 and mPLA2 assays utilized a […] substrate concentration. The mHPLA2 and HPLA2 assays (vida infra) utilized a 10 μM substrate concentration and the SmPLA2 assay utilized a substrate concentration ranging from 100 to 1000 μm. The substrate is then redissolved in 0.1M tris-HCl buffer, pH 9.0 containing 10 mM CaCl2 and 10 mM Na taurocholate detergent. The mixture is sonicated in a Kontes Sonifier to yield a homogeneous dispersion. The "mixed" micellar substrate is clear. An aliquot is reserved for a cpm count (total substrate). The total reaction volume is 500 μL; siliconized glassware or plasticware is used throughout. Enzyme (Sigma, sp. act.>690 U/mg protein and preferably 900 U/mg protein) is diluted 1:750 or 1:1000 in 0.1M tris-HCl buffer, pH 9.0 (without Ca^++ and detergent). Enzyme dilution depends on substrate concentration and required enzyme concentration.
The substrate in buffer is kept on ice until the reaction is started. The reaction is started by adding 10 μL of diluted enzyme solution to 490 μL of micellar substrate solution. Samples are incubated in a 37° C. water bath for 15 minutes with gentle mixing. The reaction is terminated by the addition of 100 μL of 1M fresh trichloroacetic acid (TCA) solution and chilling the tubes on ice for 30 minutes.
Samples (600 μL) are extracted with 3 ml CHCl3 /MeOH (2:1) for thin layer chromatography or in hexane/ether (9:1) for column chromatography. The phases are separated by gentle centrifugation at 700 rpm×5'. The organic phase is recovered.
Labeled arachidonate extracted with CHCl3 /MeOH is separated on silica gel G TLC plates (Analtech). Twenty μL of a 2 mg/ml internal standard solution of arachidonic acid (Sigma) is combined with 2-3 ml of the organic phase. The entire mixture is dried under nitrogen and redissolved in 50 μL of CHCl3 /MeOH (2:1). A 20 μL sample is counted in 10 ml of Beckman Redi-solv HP and spotted on silica gel G plates. The solvent system used to develop the plate is CHCl3 /MeOH/13.5N NH3 /H2 O (70:30:4:1). Plates are developed in a glass chamber for 1-11/2 hours, air dried, and the spots visualized in an iodine vapor chamber. Standards of phosphatidylcholine, lyso PC, and arachidonic acid (Sigma) are made as 2 mg/ml stocks in CHCl3 /MeOH (2:1) and spotted on plates. Spots corresponding to arachidonate and phospholipid are scraped and counted in 10 ml Beckman Redi-Solv HP scintillation fluid.
Samples are extracted with hexane/ether and the upper organic phase recovered. An aliquot is applied to a Silicar CC4 (Malincrodt) column. Columns are prepared using 1 ml of a 1:1 slurry of silicar CC4 in hexane/ether in a Pasteur pipet (approx. 2 cm height). […] The 6 ml sample is counted in 10 ml of Beckman Redi-Solv HP scintillation fluid. […]

## CCCCCCCCCCCCCCCCOCC(COP(=O)([O-])OCC[N+](C)(C)C)CC(N)CCCCCCCCCCCCCCCC (centres unmarked) [7-(2-Aminooctadecyl)-4-hydroxy-N,N,N-trimethyl-3,5,9-trioxa-4-phosphapentacosanaminium, hydroxide, inner salt, 4-oxide]
Porcine pancreatic PLA2 [1]
  % Inh.: 76%
Porcine pancreatic PLA2 [2]; dose 20 μ/ml
  % Inh.: 98%

## CCCCCCCCCCCCCCCCOCC(COP(=O)([O-])OCC[N+](C)(C)C)OP(=O)(OC)OCCCCCCCCCCCCCCCC (centres unmarked) [3,5,8,10-Tetraoxa-4,9-diphosphahexacosan-1-aminium, 7-[(hexa] [3,5,8,10-Tetraoxa-4,9-diphosphahexacosan-1-aminium, 7-[(hexadecyloxy)methyl]-4-hydroxy-9-methoxy-N,N,N-trimethyl-, hydroxide, inner salt, 4,9-dioxide]
Porcine pancreatic PLA2 [3]; dose 10 μ/ml
  % Inh.: 72% and 78%
Porcine pancreatic PLA2 [3]; dose 25 μ/ml
  % Inh.: 72% and 85%
Porcine pancreatic PLA2 [3]; dose 50 μ/ml
  % Inh.: 68% and 87%

## CCCCCCCCCCCCCCCCS(=O)(=O)CCCOP(=O)([O-])OCC[N+](C)(C)C [4-Hydroxy-N,N,N-trimethyl-3,5-dioxa-9-thia-4-phosphapentacosan-1-aminium, hydroxide, inner salt, 4.9.9-trioxide]
Porcine pancreatic PLA2 [3]; dose 10 μ/ml
  % Inh.: 74%

## CCCCCCCCCCCCCCCCOC[C@H](COP(=O)([O-])OCC[N+](C)(C)C)OP(=O)(OC)OCCCCCCCCCCCCCCCC (single isomer, unassigned) [3,5,8,10-Tetraoxa-4,9-diphosphahexacosan-1-aminium, 7-[(hexa]
Porcine pancreatic PLA2 [2]; dose 25 μ/ml
  % Inh.: 83% and 91%

## CCCCCCCCCCCCCCCCOCC(COP(=O)([O-])OCC[N+](C)(C)C)CC1CO1 (centres unmarked) [4-Hydroxy-N,N,N-trimethyl-7-(oxiranylmethyl)-3,5,9-trioxa-4-phosphapentacosan-1-aminium, hydroxide, inner salt, 4-oxide]
Porcine pancreatic PLA2 [3]; dose 10 μ/ml
  % Inh.: 77%
